The target in the assay is T1, Type II cGMP-dependent protein kinase (PKG II) (UniProt Q13237).
T1 sequence: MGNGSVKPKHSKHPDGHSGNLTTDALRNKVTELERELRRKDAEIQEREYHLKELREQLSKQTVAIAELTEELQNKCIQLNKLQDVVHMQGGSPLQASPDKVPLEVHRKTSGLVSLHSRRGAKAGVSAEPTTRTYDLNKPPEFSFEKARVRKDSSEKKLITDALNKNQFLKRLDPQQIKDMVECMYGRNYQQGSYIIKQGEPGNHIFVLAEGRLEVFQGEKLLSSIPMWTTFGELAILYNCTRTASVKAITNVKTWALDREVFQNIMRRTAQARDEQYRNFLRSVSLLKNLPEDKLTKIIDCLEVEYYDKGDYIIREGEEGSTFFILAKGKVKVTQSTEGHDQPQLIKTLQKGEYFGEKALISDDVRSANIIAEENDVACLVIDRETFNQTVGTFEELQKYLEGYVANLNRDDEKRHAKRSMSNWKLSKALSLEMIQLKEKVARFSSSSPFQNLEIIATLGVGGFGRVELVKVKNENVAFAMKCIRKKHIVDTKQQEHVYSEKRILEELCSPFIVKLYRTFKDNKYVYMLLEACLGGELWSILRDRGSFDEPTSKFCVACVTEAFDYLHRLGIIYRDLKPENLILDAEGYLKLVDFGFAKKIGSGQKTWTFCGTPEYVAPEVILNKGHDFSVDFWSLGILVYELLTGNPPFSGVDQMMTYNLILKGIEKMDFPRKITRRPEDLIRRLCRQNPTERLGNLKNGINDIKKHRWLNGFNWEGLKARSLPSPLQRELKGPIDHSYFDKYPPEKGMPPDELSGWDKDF
Kind of assay: co-IP; AGS cells infected with Ad-PKG II, serum-starved o/n, 250 uM 8-pCPT-cGMP for 1 h, EGF (100 ng/ml) for 5 min; lysate immunoprecipitated with anti-PKG II antibody or isotype-matched IgG and probed with anti-EGFR antibody; the contrary experiment (IP anti-EGFR, probed with anti-PKG II) also performed.

Results are given in words; binding and its absence hold for the method and conditions named. Binding seen in cells or lysates may run through a third protein. Some entries that bind do so weakly or less than the wild type.

For the substance “epidermal growth factor receptor (EGFR) (from UniProt P00533 25-1210)”, the binding entry is listed as “binds”.

The values are drawn from PMC3627897.
